The values that follow come from patent US20180087116, “METHODS AND BIOSENSORS FOR TUMOR DETECTION” (published 2018).

The data set concerns Human immunoglobulin G (HIgG) (Homo sapiens). Briefly: binding assay. The following applies: 5'-SH (thiol), immobilised on Au segment of nanomotor; selectivity control, 20 nM HIgG in PBS; methylene blue release fluorescence; label: methylene blue (non-covalently adsorbed); single-stranded DNA.

Construct, isoform or probe ends are uncertain for at least one entry. A negative result means that nothing was seen under these conditions.

Consider “TTTCCCGTCTTCCAGACAAGAGTGCAGGG [anti-VEGF DNA aptamer]”, for which the binding result was “no binding”.
